In experiment [1] the target is T1, GST-Arl8Δ17 T34N (GDP-locked form of Drosophila Arl8) (Drosophila melanogaster) (UniProt Q9VHV5).
T1 sequence: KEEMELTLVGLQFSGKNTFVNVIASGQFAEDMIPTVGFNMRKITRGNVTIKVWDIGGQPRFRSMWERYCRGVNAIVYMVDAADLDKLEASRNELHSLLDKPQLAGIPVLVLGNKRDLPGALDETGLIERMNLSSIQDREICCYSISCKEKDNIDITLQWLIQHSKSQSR
As to the kind of experiment: affinity purification with mass spectrometry; GST-Arl8Δ17 (Q75L or T34N) on Glutathione-Sepharose beads; clarified S2 cell cytosol prepared with 1% CHAPS (20 mM Tris-HCl pH 8, 110 mM KCl, 5 mM MgCl2, 5 mM β-mercaptoethanol), with GDP or GTPγS, 4°C; eluted with high salt and the opposite nucleotide; only the target purified.

Experiment [2] has as its target T2, GST-Arl8Δ17 Q75L (GTP-locked form of Drosophila Arl8) (Drosophila melanogaster) (UniProt Q9VHV5).
T2 sequence: T1 sequence with N17T, Q58L
Described as above.

Experiment [3] deals with T1, GST-Arl8Δ17 T34N (GDP-locked form of Drosophila Arl8) (Drosophila melanogaster). As to the kind of experiment: affinity purification with mass spectrometry; GST-Arl8Δ17 (Q75L or T34N) on Glutathione-Sepharose beads; clarified S2 cell cytosol prepared without detergent (20 mM Tris-HCl pH 8, 110 mM KCl, 5 mM MgCl2, 5 mM β-mercaptoethanol), with GDP or GTPγS, 4°C; eluted with high salt and the opposite nucleotide; only the target purified.

The target of experiment [4] is T2, GST-Arl8Δ17 Q75L (GTP-locked form of Drosophila Arl8) (Drosophila melanogaster). The experiment is described as above.
Experiment [5] concerns the target T1, GST-Arl8Δ17 T34N (GDP-locked form of Drosophila Arl8) (Drosophila melanogaster). Described as above. The source holds these as a separate data set.
In experiment [6] the target is T2, GST-Arl8Δ17 Q75L (GTP-locked form of Drosophila Arl8) (Drosophila melanogaster). Described as above. This is another data set of the same source.

Substitutions are numbered along the chain they refer to. Results are given in words; binding and its absence hold for the method and conditions named. Binding seen in cells or lysates may run through a third protein. These calls come from enrichment with a bait or labelling near it, and not all partners need be listed. For some assays here: No binding means not detected with the bait. Tags and fused reporters may be left off the sequences shown.

Regarding “CG6613, the Drosophila ortholog of PLEKHM1”, the binding entry in experiment [1], in experiment [2], in experiment [3] and in experiment [4] was “no binding” throughout.

Take Rod: the binding result in experiment [1] is on record as “no binding”; in experiment [2] it was “binds”; in experiment [3] it was “no binding”; in experiment [4], “binds”.

B1: CG11448, the Drosophila ortholog of RILP (protein, UniProt O76878 1-443)
chain: MPGFHLNEMGEMVLDAIDDIGVVDVYDLASDIGKEYERIMDRFGTDAVSGLMPKIINTLELLEALATKNERENATIQELRDKVAQLESEKLEKAEFRRRFDKELELIEEQWRSETNELVDLVSSLQDENKRLVKQTQDLQSSSAQSSGLGASLTESIISMTNHELHSALSDTQVLQRLKEQIYKQRDELKHRERELQDKYSELEHLNIQAERLKASERDTRRRHKLMQAQVKTLCEERADFLAQLQDQSREINQLRKRLGLAEKENEDLVASYDDGQNDPNRPRYTTRELKELISERDELLTTIDTLNEQLAELKPPSQAKGKRQRHFSSSDDSDEDDDGHVADNDDDDDEEEAAAEANELEPPAAGETPPGHDAPVQGPLPYEPDDAPWKKSSESGIRKFFRKLFSDPSDGSNTFPKRSLATLSKMALSATPGSVSASAAAK
As for B1, the binding result in experiment [5] is listed as “no binding”; in experiment [6], “binds”; in experiment [1] it was “no binding”; in experiment [2], “binds”.

B2: Zw10 (protein, UniProt Q9W4X9 1-721)
chain: MEEEAPRFNVLEEAFNGNGNGCANVEATQSAILKVLTRVNRFQMRVRKHIEDNYTEFLPNNTSPDIFLEESGSLNREIHDMLENLGSEGLDALDEANVKMAGNGRQLREILLGLGVSEHVLRIDELFQCVEEAKATKDYLVLLDLVGRLRAFIYGDDSVDGDAQVATPEVRRIFKALECYETIKVKYHVQAYMLQQSLQERFDRLVQLQCKSFPTSRCVTLQVSRDQTQLQDIVQALFQEPYNPARLCEFLLDNCIEPVIMRPVMADYSEEADGGTYVRLSLSYATKEPSSAHVRPNYKQVLENLRLLLHTLAGINCSVSRDQHVFGIIGDHVKDKMLKLLVDECLIPAVPESTEEYQTSTLCEDVAQLEQLLVDSFIINPEQDRALGQFVEKYETYYRNRMYRRVLETAREIIQRDLQDMVLVAPNNHSAEVANDPFLFPRCMISKSAQDFVKLMDRILRQPTDKLGDQEADPIAGVISIMLHTYINEVPKVHRKLLESIPQQAVLFHNNCMFFTHWVAQHANKGIESLAALAKTLQATGQQHFRVQVDYQSSILMGIMQEFEFESTHTLGSGPLKLVRQCLRQLELLKNVWANVLPETVYNATFCELINTFVAELIRRVFTLRDISAQMACELSDLIDVVLQRAPTLFREPNEVVQVLSWLKLQQLKAMLNASLMEITELWGDGVGPLTASYKSDEIKHLIRALFQDTDWRAKAITQIV
Consider B2, for which the binding entry in experiment [5] is listed as “no binding”; in experiment [6] it was “binds”; in experiment [1] it was “no binding”; in experiment [2] it was “binds”.

B3: Zwilch (protein, UniProt Q9VA00 1-641)
chain: MSASANLANVYAELMRRCGESYTITYGAPPTYLVSMVGAAEAGKKIVLVFKEDRNGAVARLRTTPTRAAPKKEGSADLDLTGSPLKDDCLVDAIADLSIDLQLDHSNPWKLEEEYQRGIPVDKARSIVCSEFLQLAEGLGSVWFLCDGSDLGQTQLLQYEFNPTHFSRGILSYQGVRPAYLVTSQALVRHHGKTPDETLIENSYQVNPHMRLRCSWTSSAALPLLVNLNDCDVALNHTFRVGDCGPLTQDFMNQLRILVYIREDIVSYHTDVKQGVSRDPTYRCGSGIDMDELRESINQTMTDVSGLIGRYSISNAEFDIEDVVQRAKVRQLTDLTDKLWELLKCCHSYKDLKIAFSMLFQCAARCNIVNTPTNKNRLAKIITELANRRLAMPCLSGAEPLELLLEIGLEKLYKDYEFIYTESKMCSTNLLKDDSSGASMDDGSPQNLPQLRKSLHNAVRGDPTPGAGMRKTLLHHHGAVNSRSTKYAGSDDDAGFKNSHFDEHESTERISKLFQIHCTLEHLLMMHIHLNLANVYNDVCSELLKKPPKLVESIDDQLSDVMDIRLSAHYVRDHLDGKDPYSRHITMRSHNKFRELKTTFYFNSENICPPNLAQCFQCDDKEMVKERTYHSWIYHKIRSLK
On to B3, for which the binding entry is “no binding” in experiment [5], “binds” in experiment [6], “no binding” in experiment [1] and “binds” in experiment [2].

These data come from paper PMC6176938.
